Results are given in words; binding and its absence hold for the method and conditions named. Binding seen in cells or lysates may run through a third protein. Sequences can lack the tags named with a protein.
Legend:
[1] = biological target: Flag-pGSDMD-1-193 (porcine); assay: co-IP; HEK293T cells transfected for 24 h, lysed; supernatants incubated with anti-Flag binding beads at 4°C overnight, washed with TBS 5 times, immunoblot
[2] = biological target: Flag-pGSDMD-194-279 (porcine); assay: as above

B1: porcine Caspase-1, HA-tagged (HA-pCaspase-1) (enzyme, UniProt Q9N2I1 1-404)
chain: MADKVLKEKRRLFVRSVAMGTINGLLDELLETRVLNQEEVEIVRGENATVMDKARALIDSVIRKGPQACQICINHICGDDPHLAGVLELSTGSQSGKCLTVQESQAVVPPFPAPQTVQDNPVKPASSEPRGSLKLCPPDIAQRLWKEKSAEIYPIMGKSIRTRLALIICNTEFENLPRRDGADVDIRDMKILLEDLGYSVDVRENLTASDMAIELKAFAARPEHKSSDSTFLVLMSHGIQAGICGKKYSEEVPDVLEVNTVFQILNTLNCPSLKDKPKVIIIQACRGEKQGVVWIKDSVGPSGNSSLLAAEDFEYDAIKKAHIEKDFIAFCSSTPDNVSWRHPLLGSLFIIKLIKILQEHAWSCGLEEIFRKVRFSFELADGRAQMPTAERVTLTRSFYLFPGH
B1 was tested, and the binding [1] was “no binding” and the binding [2] was “no binding”.

— article PMC8749417
